Consider five molecules from publication doi:10.1101/394981.

The chains behind the UniProt entries cited, without tags or fusion partners. Where a name states a change or a piece, a line headed by the entry shows the natural chain unless it says otherwise. Residues count along the entry.
UniProt Q9VEN2: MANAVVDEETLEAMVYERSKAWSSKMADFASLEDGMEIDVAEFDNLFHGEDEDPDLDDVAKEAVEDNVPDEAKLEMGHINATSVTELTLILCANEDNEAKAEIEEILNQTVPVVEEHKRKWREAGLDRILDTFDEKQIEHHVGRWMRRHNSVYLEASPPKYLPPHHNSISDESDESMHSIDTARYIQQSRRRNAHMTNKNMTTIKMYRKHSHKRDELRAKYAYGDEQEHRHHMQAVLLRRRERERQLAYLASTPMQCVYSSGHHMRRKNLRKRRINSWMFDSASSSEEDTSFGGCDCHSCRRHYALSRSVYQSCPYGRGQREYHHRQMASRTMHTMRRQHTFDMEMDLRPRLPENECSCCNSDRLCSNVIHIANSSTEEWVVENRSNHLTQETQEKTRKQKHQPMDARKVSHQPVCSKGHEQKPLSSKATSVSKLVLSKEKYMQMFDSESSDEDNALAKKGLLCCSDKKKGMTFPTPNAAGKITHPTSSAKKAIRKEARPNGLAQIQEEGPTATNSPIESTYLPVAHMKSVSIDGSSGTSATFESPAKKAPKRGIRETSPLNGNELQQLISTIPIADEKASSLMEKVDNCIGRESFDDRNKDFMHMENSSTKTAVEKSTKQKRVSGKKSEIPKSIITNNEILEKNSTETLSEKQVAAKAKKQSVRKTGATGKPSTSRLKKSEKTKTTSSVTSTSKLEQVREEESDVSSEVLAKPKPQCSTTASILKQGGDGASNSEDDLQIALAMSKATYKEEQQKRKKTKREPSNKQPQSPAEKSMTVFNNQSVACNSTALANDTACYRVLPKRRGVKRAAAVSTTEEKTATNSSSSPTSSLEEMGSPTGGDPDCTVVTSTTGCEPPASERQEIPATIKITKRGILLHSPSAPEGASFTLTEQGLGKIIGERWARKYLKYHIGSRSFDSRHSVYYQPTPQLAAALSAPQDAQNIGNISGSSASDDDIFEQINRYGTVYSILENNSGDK
CAL1 C-terminus (amino acids 680-979), yeast two-hybrid fusion (pMM6): residues 680-979 of Q9VEN2
UniProt Q9V6Q2: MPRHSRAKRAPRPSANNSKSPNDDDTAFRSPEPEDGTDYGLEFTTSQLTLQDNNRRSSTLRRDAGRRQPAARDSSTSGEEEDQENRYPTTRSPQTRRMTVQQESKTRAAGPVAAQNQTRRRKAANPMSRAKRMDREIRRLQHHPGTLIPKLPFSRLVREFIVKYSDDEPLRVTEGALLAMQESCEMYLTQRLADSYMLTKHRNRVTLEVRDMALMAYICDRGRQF

These are yes or no findings as the source states them, for the method shown. For part of these data: Binding seen in cells or lysates may run through a third protein. Some results given as binding are weak or reduced against the parent protein; the word gives no strength. Sequences can lack the tags named with a protein.

Experiment [1] concerns the target T1, GST-Zw10 (Drosophila melanogaster) (UniProt Q9W4X9).
T1 sequence: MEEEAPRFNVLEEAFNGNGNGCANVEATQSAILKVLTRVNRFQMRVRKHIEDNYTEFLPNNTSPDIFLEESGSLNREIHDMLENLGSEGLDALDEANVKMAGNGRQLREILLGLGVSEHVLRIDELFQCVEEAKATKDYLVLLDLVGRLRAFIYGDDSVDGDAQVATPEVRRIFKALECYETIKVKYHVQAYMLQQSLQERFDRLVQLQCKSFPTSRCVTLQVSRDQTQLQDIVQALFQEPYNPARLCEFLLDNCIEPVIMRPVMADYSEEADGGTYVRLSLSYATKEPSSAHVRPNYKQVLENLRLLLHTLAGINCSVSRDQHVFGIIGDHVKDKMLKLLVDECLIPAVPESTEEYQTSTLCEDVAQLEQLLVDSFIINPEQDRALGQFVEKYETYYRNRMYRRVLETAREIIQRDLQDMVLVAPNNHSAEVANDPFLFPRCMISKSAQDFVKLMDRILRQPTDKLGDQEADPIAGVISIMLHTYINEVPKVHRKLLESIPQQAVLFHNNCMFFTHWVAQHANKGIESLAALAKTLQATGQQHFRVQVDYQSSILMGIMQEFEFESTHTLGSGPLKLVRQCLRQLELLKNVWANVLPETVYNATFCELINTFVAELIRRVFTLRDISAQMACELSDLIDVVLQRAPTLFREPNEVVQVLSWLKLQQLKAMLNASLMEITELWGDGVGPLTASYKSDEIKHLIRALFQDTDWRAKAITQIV
The experiment can be described thus: pull-down.

The target of experiment [2] is T2, GFP-Zw10 (Drosophila melanogaster) (UniProt Q9W4X9).
T2 sequence: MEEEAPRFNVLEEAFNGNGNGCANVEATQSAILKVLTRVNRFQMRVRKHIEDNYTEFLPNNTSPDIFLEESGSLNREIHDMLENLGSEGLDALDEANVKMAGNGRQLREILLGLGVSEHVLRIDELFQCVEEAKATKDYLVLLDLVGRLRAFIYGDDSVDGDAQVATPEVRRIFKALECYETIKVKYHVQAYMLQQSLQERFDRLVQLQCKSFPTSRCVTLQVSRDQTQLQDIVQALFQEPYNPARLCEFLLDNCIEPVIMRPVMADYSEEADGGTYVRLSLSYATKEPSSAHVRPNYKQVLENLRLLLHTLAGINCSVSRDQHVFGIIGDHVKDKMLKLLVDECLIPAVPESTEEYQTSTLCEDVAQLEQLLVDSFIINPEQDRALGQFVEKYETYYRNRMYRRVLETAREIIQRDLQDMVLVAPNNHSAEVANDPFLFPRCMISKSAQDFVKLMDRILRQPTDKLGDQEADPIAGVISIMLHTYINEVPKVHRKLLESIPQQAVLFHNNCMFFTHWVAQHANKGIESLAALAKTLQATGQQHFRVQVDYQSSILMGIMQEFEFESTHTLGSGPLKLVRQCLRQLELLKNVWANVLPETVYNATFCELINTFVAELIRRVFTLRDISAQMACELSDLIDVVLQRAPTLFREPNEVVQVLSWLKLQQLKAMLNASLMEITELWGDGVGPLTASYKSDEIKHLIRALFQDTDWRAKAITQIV
Kind of experiment: co-IP.

For experiment [3], the target named is CAL1, full length, yeast two-hybrid fusion (pMM6) (Drosophila melanogaster) (UniProt Q9VEN2). Kind of experiment: two-hybrid.
Experiment [4] concerns the target CAL1 C-terminus (amino acids 680-979), yeast two-hybrid fusion (pMM6) (Drosophila melanogaster) (UniProt Q9VEN2). Kind of experiment: two-hybrid.
Experiment [5] addresses CENP-A, yeast two-hybrid fusion (pMM6) (Drosophila melanogaster) (UniProt Q9V6Q2). Kind of experiment: two-hybrid.

Take “His-Sumo-CAL1 (from UniProt Q9VEN2 1-979)”: the binding result in experiment [1] was “binds”.
“CAL1 in lysate of S2 cells that express GFP-Zw10 (from UniProt Q9VEN2 1-979)”: the binding result in experiment [2] is on record as “binds”.

B1: Zw10, full length, yeast two-hybrid fusion (pMM5) (protein, UniProt Q9W4X9 1-721)
chain: MEEEAPRFNVLEEAFNGNGNGCANVEATQSAILKVLTRVNRFQMRVRKHIEDNYTEFLPNNTSPDIFLEESGSLNREIHDMLENLGSEGLDALDEANVKMAGNGRQLREILLGLGVSEHVLRIDELFQCVEEAKATKDYLVLLDLVGRLRAFIYGDDSVDGDAQVATPEVRRIFKALECYETIKVKYHVQAYMLQQSLQERFDRLVQLQCKSFPTSRCVTLQVSRDQTQLQDIVQALFQEPYNPARLCEFLLDNCIEPVIMRPVMADYSEEADGGTYVRLSLSYATKEPSSAHVRPNYKQVLENLRLLLHTLAGINCSVSRDQHVFGIIGDHVKDKMLKLLVDECLIPAVPESTEEYQTSTLCEDVAQLEQLLVDSFIINPEQDRALGQFVEKYETYYRNRMYRRVLETAREIIQRDLQDMVLVAPNNHSAEVANDPFLFPRCMISKSAQDFVKLMDRILRQPTDKLGDQEADPIAGVISIMLHTYINEVPKVHRKLLESIPQQAVLFHNNCMFFTHWVAQHANKGIESLAALAKTLQATGQQHFRVQVDYQSSILMGIMQEFEFESTHTLGSGPLKLVRQCLRQLELLKNVWANVLPETVYNATFCELINTFVAELIRRVFTLRDISAQMACELSDLIDVVLQRAPTLFREPNEVVQVLSWLKLQQLKAMLNASLMEITELWGDGVGPLTASYKSDEIKHLIRALFQDTDWRAKAITQIV
Turning to B1, the binding result in experiment [3] is listed as “binds weakly”.

B2: Zw10 C-terminus (amino acids 482-721), yeast two-hybrid fusion (pMM5) (domain or fragment, UniProt Q9W4X9 482-721)
chain: MLHTYINEVPKVHRKLLESIPQQAVLFHNNCMFFTHWVAQHANKGIESLAALAKTLQATGQQHFRVQVDYQSSILMGIMQEFEFESTHTLGSGPLKLVRQCLRQLELLKNVWANVLPETVYNATFCELINTFVAELIRRVFTLRDISAQMACELSDLIDVVLQRAPTLFREPNEVVQVLSWLKLQQLKAMLNASLMEITELWGDGVGPLTASYKSDEIKHLIRALFQDTDWRAKAITQIV
For the molecule B2, the binding result in experiment [4] was “binds”.

B3: Zwilch, yeast two-hybrid fusion (pMM5) (protein, UniProt Q9VA00 1-641)
chain: MSASANLANVYAELMRRCGESYTITYGAPPTYLVSMVGAAEAGKKIVLVFKEDRNGAVARLRTTPTRAAPKKEGSADLDLTGSPLKDDCLVDAIADLSIDLQLDHSNPWKLEEEYQRGIPVDKARSIVCSEFLQLAEGLGSVWFLCDGSDLGQTQLLQYEFNPTHFSRGILSYQGVRPAYLVTSQALVRHHGKTPDETLIENSYQVNPHMRLRCSWTSSAALPLLVNLNDCDVALNHTFRVGDCGPLTQDFMNQLRILVYIREDIVSYHTDVKQGVSRDPTYRCGSGIDMDELRESINQTMTDVSGLIGRYSISNAEFDIEDVVQRAKVRQLTDLTDKLWELLKCCHSYKDLKIAFSMLFQCAARCNIVNTPTNKNRLAKIITELANRRLAMPCLSGAEPLELLLEIGLEKLYKDYEFIYTESKMCSTNLLKDDSSGASMDDGSPQNLPQLRKSLHNAVRGDPTPGAGMRKTLLHHHGAVNSRSTKYAGSDDDAGFKNSHFDEHESTERISKLFQIHCTLEHLLMMHIHLNLANVYNDVCSELLKKPPKLVESIDDQLSDVMDIRLSAHYVRDHLDGKDPYSRHITMRSHNKFRELKTTFYFNSENICPPNLAQCFQCDDKEMVKERTYHSWIYHKIRSLK
Turning to B3, the binding result in experiment [3] and in experiment [5] was “no binding” in each case.
